Test results reported in the supplement of paper PMC12067093, “Discovery and optimisation of a covalent ligand for TRIM25 and its application to targeted protein ubiquitination” (Chemical Science, 2025).
Some of the results follow.

The chains behind the UniProt entries cited, without tags or fusion partners. Where a name states a change or a piece, a line headed by the entry shows the natural chain unless it says otherwise.
UniProt P11413, whole entry, looked up: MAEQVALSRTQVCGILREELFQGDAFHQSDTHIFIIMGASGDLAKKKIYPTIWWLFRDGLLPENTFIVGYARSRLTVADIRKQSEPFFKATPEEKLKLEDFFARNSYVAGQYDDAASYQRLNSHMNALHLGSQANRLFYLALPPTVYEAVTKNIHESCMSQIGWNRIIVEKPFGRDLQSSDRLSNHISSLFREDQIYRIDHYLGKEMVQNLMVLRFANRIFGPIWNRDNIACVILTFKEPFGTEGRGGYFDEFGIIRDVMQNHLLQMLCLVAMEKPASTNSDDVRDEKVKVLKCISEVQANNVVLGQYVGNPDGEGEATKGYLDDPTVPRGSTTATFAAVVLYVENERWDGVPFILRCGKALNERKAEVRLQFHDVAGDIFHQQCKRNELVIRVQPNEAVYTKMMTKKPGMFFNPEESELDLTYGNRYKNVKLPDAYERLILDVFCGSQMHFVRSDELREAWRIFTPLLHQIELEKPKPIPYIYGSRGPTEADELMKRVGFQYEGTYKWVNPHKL
UniProt Q9Y613: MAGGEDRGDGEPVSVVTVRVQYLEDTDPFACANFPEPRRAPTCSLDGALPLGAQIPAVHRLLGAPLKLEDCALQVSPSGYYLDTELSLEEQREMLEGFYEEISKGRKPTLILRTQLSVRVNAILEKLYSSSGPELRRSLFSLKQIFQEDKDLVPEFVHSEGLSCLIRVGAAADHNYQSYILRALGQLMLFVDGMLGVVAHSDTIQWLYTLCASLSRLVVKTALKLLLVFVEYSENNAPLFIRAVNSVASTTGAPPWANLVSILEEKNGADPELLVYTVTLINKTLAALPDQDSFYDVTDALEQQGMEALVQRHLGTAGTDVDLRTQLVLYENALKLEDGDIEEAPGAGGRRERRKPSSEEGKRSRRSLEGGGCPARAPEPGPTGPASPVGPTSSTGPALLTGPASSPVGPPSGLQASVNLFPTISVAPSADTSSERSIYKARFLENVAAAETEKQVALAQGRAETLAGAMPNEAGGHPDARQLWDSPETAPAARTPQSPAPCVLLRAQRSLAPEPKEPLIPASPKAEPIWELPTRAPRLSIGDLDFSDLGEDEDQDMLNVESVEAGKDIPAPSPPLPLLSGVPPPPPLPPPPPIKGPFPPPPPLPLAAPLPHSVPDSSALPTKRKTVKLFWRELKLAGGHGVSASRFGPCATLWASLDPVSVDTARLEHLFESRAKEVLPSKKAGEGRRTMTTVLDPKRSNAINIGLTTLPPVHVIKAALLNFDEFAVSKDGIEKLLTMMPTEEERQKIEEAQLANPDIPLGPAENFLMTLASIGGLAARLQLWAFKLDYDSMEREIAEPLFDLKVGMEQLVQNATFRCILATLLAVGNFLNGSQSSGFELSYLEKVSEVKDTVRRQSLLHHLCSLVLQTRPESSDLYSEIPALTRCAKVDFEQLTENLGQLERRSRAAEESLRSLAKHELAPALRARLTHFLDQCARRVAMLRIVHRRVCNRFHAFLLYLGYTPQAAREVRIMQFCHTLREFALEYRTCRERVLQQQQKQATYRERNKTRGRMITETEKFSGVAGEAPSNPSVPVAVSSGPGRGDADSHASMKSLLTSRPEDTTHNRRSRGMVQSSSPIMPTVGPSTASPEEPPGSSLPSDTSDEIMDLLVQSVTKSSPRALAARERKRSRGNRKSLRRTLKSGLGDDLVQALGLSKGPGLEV
UniProt Q13451: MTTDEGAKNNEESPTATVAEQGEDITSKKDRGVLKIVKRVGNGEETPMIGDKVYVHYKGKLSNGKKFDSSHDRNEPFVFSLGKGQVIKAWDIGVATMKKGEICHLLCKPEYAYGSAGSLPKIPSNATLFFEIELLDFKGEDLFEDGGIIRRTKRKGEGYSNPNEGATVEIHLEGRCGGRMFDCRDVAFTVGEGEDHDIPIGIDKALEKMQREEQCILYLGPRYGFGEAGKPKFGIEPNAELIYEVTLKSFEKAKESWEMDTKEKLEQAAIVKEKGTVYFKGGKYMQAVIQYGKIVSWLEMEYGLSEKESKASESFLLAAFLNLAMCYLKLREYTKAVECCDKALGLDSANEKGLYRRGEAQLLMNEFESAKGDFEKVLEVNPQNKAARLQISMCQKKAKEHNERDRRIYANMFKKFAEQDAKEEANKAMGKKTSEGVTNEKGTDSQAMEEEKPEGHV
UniProt O75369, whole entry, looked up: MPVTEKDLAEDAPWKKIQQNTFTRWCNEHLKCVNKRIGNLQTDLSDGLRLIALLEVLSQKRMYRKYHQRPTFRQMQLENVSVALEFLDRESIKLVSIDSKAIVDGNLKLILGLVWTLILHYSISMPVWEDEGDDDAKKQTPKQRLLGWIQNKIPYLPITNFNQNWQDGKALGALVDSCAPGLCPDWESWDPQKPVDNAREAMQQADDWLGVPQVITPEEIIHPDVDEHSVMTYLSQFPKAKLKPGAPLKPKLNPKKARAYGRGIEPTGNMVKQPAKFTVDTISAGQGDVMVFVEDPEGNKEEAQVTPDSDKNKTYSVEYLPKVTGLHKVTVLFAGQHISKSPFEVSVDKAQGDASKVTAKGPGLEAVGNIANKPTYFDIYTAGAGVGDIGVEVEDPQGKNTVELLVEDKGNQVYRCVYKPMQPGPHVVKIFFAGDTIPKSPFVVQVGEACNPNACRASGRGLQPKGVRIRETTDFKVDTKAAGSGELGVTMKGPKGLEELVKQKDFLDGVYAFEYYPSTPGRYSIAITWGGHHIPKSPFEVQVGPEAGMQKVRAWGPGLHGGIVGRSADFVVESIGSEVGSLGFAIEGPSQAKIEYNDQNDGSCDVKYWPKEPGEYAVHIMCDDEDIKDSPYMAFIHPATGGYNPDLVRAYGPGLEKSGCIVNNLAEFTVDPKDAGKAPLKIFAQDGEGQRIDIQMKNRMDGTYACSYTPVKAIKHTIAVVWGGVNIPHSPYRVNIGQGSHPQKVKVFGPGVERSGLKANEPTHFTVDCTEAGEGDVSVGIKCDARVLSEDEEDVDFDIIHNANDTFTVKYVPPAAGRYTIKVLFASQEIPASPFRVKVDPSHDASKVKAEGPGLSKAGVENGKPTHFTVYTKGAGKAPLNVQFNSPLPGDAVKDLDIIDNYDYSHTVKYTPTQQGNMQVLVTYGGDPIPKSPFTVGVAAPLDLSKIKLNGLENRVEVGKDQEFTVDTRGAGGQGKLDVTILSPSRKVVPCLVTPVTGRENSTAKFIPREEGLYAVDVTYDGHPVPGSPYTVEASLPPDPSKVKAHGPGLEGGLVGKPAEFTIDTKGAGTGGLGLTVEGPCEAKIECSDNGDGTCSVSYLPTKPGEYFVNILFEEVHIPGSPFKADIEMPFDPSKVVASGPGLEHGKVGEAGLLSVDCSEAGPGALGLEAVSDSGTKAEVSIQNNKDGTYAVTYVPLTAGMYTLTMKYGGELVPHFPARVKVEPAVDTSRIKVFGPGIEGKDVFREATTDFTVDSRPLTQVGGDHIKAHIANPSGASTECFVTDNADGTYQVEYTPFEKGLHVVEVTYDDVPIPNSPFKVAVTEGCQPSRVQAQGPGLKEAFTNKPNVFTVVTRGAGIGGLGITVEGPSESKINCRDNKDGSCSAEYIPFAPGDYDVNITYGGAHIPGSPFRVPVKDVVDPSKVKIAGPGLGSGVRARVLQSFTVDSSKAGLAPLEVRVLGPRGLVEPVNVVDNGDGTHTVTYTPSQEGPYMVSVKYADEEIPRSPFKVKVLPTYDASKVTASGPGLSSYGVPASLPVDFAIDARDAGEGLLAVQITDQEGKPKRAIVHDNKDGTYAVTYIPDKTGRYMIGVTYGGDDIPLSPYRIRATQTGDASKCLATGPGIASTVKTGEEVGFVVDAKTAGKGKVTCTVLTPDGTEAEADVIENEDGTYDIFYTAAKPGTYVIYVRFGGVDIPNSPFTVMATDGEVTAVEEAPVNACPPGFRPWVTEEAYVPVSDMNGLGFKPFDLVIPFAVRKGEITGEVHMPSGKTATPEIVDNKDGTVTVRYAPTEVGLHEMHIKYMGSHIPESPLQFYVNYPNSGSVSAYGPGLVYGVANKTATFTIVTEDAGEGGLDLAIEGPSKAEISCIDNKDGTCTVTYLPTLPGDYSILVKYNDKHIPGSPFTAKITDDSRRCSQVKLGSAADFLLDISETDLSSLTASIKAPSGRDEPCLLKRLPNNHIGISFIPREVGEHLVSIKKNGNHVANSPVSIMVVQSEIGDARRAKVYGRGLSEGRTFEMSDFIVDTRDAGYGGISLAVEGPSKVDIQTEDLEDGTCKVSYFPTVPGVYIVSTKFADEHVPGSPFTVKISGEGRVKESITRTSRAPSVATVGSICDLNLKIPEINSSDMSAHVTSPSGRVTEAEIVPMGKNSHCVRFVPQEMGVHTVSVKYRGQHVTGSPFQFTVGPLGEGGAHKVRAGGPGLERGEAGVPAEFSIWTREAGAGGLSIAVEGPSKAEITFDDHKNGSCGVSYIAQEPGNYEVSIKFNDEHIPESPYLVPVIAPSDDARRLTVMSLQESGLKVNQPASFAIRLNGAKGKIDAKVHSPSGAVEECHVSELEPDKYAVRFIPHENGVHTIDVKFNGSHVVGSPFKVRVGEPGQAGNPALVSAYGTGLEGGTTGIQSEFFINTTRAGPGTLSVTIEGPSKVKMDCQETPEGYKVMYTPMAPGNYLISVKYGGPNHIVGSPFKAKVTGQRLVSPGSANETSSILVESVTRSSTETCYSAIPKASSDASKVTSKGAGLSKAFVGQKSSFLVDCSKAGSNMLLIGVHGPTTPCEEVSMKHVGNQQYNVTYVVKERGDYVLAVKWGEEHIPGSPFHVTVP
UniProt Q06546: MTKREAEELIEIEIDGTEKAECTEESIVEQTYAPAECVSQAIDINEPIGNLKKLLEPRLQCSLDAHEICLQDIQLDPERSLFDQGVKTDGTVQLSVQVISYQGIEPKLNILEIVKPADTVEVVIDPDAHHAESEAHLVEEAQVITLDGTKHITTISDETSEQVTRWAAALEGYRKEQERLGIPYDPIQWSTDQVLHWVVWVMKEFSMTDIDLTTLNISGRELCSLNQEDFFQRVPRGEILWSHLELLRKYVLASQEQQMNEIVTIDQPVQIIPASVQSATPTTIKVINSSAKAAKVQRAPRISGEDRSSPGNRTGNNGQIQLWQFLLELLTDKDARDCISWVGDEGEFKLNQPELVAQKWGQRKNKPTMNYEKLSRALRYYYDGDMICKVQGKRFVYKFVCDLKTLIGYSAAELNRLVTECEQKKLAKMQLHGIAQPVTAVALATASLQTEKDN
UniProt Q8NFG4: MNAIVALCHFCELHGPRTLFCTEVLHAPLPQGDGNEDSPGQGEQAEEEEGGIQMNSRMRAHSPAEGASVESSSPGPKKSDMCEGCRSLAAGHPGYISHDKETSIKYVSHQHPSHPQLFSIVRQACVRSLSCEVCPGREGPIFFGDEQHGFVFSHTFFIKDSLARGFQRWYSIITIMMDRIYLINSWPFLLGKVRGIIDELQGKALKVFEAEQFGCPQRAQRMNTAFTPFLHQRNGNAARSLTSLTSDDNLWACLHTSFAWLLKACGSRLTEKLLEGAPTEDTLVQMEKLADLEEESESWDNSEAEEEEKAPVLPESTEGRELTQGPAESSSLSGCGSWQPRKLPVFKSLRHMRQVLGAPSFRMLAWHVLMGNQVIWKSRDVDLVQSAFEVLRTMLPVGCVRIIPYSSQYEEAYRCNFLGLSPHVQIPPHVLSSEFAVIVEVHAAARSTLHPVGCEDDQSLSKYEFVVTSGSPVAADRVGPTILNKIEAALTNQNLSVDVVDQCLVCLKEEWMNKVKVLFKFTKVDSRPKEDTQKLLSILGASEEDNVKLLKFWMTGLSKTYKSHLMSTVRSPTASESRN
UniProt Q96I24: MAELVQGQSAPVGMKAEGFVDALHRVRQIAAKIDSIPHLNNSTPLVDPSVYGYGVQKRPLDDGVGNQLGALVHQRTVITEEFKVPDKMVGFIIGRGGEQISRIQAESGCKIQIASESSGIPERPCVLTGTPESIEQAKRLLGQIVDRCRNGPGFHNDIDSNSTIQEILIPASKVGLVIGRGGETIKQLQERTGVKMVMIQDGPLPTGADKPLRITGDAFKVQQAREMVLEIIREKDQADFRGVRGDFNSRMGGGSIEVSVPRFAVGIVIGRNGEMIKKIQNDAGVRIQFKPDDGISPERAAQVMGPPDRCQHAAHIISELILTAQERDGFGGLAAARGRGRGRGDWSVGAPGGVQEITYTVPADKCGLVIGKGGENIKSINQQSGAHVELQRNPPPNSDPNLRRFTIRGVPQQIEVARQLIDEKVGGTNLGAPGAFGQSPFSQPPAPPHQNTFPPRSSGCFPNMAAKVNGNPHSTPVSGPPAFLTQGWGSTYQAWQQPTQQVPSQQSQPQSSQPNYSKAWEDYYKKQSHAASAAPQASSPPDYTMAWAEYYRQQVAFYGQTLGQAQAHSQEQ

compound: Cc1cc(ccc1-c1ccccc1)C(=O)N1CCCN(CC1)C(=O)CCl [compound 10]; test: probe-labelled cysteine peptide fold change vs DMSO (competition) (log2 fold change); higher = less target engagement (more negative = stronger competition); details: 10 µM; THP-1; incubation time: 4 h
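Further: competitive profiling in live THP-1 cells: cysteine peptides tagged with an iodoacetamide desthiobiotin (IA-DTB) probe, intensity after compound treatment relative to DMSO-treated cells.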

Target	probe-labelled cysteine peptide fold change
G6PD_P11413_446_LILDVFCGSQMHFVR (UniProt P11413)	0.0917
FHOD1_Q9Y613_936_LTHFLDQCAR (UniProt Q9Y613)	0.00046
FN1_P02751_461_FGFCPMAAHEEICTTNEGVMYR (UniProt P02751)	-0.0464
FKBP5_Q13451_215_EEQCILYLGPR (UniProt Q13451)	-0.119
FHOD1_Q9Y613_43_RAPTCSLDGALPLGAQIPAVHR (UniProt Q9Y613)	-0.3
FTO_Q9C0B1_249_SAVAVYSYSCEGPEEESEDDSHLEGRDPDIWHVGFK (UniProt Q9C0B1)	-0.207
FRA10AC1_Q70Z53_175_GQFFCGNK (UniProt Q70Z53)	-0.0818
FHL2_Q14192_254_CSLSLVGR (UniProt Q14192)	0.0177
FHL2_Q14192_275_GFLTERDDILCPDCGK (UniProt Q14192)	0.0254
FLNB_O75369_2537_SSFLVDCSK (UniProt O75369)	-0.096
GAB2_Q9UQC2_303_TPSNTLCR (UniProt Q9UQC2)	-0.249
FOXRED1_Q96CU9_239_KVQSLGVLFCQGEVTR (UniProt Q96CU9)	-0.0647
G6PD_P11413_385_LQFHDVAGDIFHQQCK (UniProt P11413)	-0.0419
FLNB_O75369_2556_AGSNMLLIGVHGPTTPCEEVSMK (UniProt O75369)	-0.0862
FYCO1_Q9BQS8_848_AHVQELLQCSER (UniProt Q9BQS8)	-0.0898
FSCN1_Q16658_61_QIWTLEQPPDEAGSAAVCLR (UniProt Q16658)	-0.00757
GALK2_Q01415_379_DMYECSCPELDQLVDICR (UniProt Q01415)	0.0691
FNDC3B_Q53EP0_558_SCPSEVLVCTTSPDRPGPPTRPLVK (UniProt Q53EP0)	-0.192
GABPA_Q06546_61+69_LQCSLDAHEICLQDIQLDPER (UniProt Q06546)	0.275

Target	probe-labelled cysteine peptide fold change
FTSJ3_Q8IY81_294_ASEIMVDDEELAQHPATTEDIRVCCQDIR (UniProt Q8IY81)	-0.0124
FLNB_O75369_1876_DGTCTVTYLPTLPGDYSILVK (UniProt O75369)	0.159
FKBP8_Q14318_195_SPYIPPHAALCLEVTLK (UniProt Q14318)	0.38
GABPA_Q06546_338_DCISWVGDEGEFK (UniProt Q06546)	0.0643
FRY_Q5TBA9_2494_CDMQILEER (UniProt Q5TBA9)	-0.296
FOCAD_Q5VW36_758_IRPEIPIPEELDDDEDVEDVDLSVPGSCYLK (UniProt Q5VW36)	-0.0885
FLCN_Q8NFG4_215_VFEAEQFGCPQR (UniProt Q8NFG4)	-0.0204
FUBP3_Q96I24_125_IQIASESSGIPERPCVLTGTPESIEQAK (UniProt Q96I24)	0.287
FOS_P01100_204_EKLEFILAAHRPACK (UniProt P01100)	0.0955
GABPB1_Q06547-3_355_SLLPGVLCR (UniProt Q06547)	0.135
FLNB_O75369_1617_CLATGPGIASTVK (UniProt O75369)	0.0409
FOXK1_P85037_665_VCEVGPK (UniProt P85037)	-0.343
FOXM1_Q08050_56_EVAESNSCK (UniProt Q08050)	-0.129
G6PD_P11413_385_LQFHDVAGDIFHQQCKR (UniProt P11413)	-0.0125
FIP1L1_Q6UN15_216_ITAEDCTMEVTPGAEIQDGR (UniProt Q6UN15)	-0.16
FNDC3B_Q53EP0_1025_LTEFTCYSFR (UniProt Q53EP0)	0.341
FUBP3_Q96I24_125_IQIASESSGIPERPCVLTGTPESIEQAKR (UniProt Q96I24)	0.363
FKBP5_Q13451_107_KGEICHLLCKPEYAYGSAGSLPK (UniProt Q13451)	0.00615
FLNB_O75369_1081_GAGTGGLGLTVEGPCEAK (UniProt O75369)	-0.0839

Laid out differently: entries from further up
Target,probe-labelled cysteine peptide fold change
FOCAD_Q5VW36_758_IRPEIPIPEELDDDEDVEDVDLSVPGSCYLK (UniProt Q5VW36),-0.0885
FLCN_Q8NFG4_215_VFEAEQFGCPQR (UniProt Q8NFG4),-0.0204
FUBP3_Q96I24_125_IQIASESSGIPERPCVLTGTPESIEQAK (UniProt Q96I24),0.287
